Our source for the binding values is PMC13191460.

Amino acid sequences for entries named in this document (tags omitted).
UniProt P09874: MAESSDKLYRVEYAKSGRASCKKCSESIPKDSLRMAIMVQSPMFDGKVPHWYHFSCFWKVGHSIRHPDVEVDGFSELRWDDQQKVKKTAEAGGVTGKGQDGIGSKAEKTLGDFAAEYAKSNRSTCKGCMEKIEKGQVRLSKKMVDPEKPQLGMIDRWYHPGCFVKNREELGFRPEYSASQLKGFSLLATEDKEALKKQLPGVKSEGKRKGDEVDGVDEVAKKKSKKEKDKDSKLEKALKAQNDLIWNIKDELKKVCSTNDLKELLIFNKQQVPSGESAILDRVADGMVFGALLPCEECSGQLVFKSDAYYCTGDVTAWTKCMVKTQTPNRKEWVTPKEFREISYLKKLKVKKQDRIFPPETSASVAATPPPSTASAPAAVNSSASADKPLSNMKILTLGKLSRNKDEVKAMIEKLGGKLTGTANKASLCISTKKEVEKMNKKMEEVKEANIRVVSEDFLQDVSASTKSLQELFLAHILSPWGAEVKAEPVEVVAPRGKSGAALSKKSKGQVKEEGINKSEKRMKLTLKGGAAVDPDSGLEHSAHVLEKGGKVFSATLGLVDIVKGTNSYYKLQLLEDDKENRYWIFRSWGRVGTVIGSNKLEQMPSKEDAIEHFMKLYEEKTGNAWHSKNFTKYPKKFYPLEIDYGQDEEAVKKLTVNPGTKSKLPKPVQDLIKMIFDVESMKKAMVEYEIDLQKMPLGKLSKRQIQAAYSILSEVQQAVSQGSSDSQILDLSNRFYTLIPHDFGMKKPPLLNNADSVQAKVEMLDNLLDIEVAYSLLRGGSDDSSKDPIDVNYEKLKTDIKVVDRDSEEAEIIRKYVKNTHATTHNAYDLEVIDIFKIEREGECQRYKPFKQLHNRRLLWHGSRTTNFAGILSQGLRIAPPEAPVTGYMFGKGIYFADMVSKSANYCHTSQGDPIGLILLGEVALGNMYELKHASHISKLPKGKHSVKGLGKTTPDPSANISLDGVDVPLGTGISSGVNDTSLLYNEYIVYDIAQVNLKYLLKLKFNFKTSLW

For assay [1], the target named is DDX11 (endogenous) (human (endogenous in NOZ and GBC-SD)) (UniProt Q96FC9). The assay is described as follows: co-IP; endogenous proteins; NOZ and GBC-SD lysates (NETN buffer), cells with or without gemcitabine (NOZ 250 nM, GBC-SD 400 nM) for 14 h; DDX11 antibody on protein A/G magnetic beads, overnight at 4°C; IgG control; western blot.
The target in assay [2] is Flag-DDX11 (human) (UniProt Q96FC9). The assay is described as follows: co-IP; Flag-DDX11 and Myc-PARP1 expressed in NOZ cells for 72 h; total protein incubated with Flag M2 affinity gel; western blot with tag antibodies.

These are yes or no findings as the source states them, for the method shown. Binding seen in cells or lysates may run through a third protein. Some entries that bind do so weakly or less than the wild type. For part of these data: Where a sequence is shown, tags or fusion partners need not be part of it.

With “PARP1 (endogenous) (from UniProt P09874 1-1014)”, the binding entry in assay [1] is listed as “binds”.
On the same count and under the same terms, under “Ku70/80 (from UniProt P12956 1-609; P13010 1-732) (complex)” stands “binds”.
Consider Myc-PARP1 (from UniProt P09874 1-1014), for which the binding result in assay [2] was “binds”.
